“And” between values parts separate entries of the source, which are not always exact repeats. Equal values may be shown once. Where a name gives a salt, the structure may show the parent alone. ± gives the standard deviation of the averaged measurements. This is one part of the list. Single values are uncertain, as repeats are few or missing.
test system: HeLa; test: lysosomal-METRIQ red/green fluorescence ratio relative to DMSO (ratio to DMSO); higher = higher lysosomal activity / lysosomal biogenesis; conditions: 10 µM; 12 h

| Structure (SMILES) | lysosomal-METRIQ red/green fluorescence ratio |
| --- | --- |
| C=C1[C@@H](C)[C@H]2[C@H](Cc3ccccc3)NC(=O)[C@]23[C@H](OC(C)=O)/C=C/[C@@](C)(O)C(=O)[C@@H](C)C/C=C/[C@H]3[C@@H]1O [Cytochalasin D] | 0.871 |
| C=C(C)[C@H]1Cc2c(ccc3c2O[C@@H]2COc4cc(OC)c(OC)cc4[C@@H]2C3=O)O1 [Rotenone] | 1.09 |
| N[C@@H]1C[C@H]1c1cc(F)cc(F)c1OCc1ccccc1 [S2101 (LSD1 inhibitor II)] | 0.773 |
| O=C1Nc2ccccc2C2(CCN(CCc3ccc(C(F)(F)F)cc3)CC2)O1 | 0.88 |
| C#CCN(C)C(C)Cc1ccccc1 (stereo unspecified) [Deprenyl] | 1.13 |
| CC[C@H]1/C=C/C=C/C[C@@H](C)[C@H](O)[C@@](C)(O)C(=O)[C@@H](C)[C@H](O)[C@@H](C)C(=O)[C@@H](C)[C@H](O)[C@@H](C)/C=C/C(=O)O[C@@H]2[C@H](C)[C@H](CC1)O[C@]1(CC[C@H](C)[C@H](C[C@@H](C)O)O1)[C@H]2C [Oligomycin] | 0.84 |
| C[C@H]1O[C@@H](n2cnc3c(N)ncnc32)C[C@@H]1O [2',5'-dideoxyadenosine] | 1 |
| C[C@@H]1C[C@@H]([C@H](O)CC2CC(=O)NC(=O)C2)C(=O)[C@@H](C)C1 [Cycloheximide] | 1.8 |
| C[C@@]12C(=O)OC(=O)[C@]1(C)[C@H]1CC[C@@H]2O1 [Cantharidin] | 0.867 |
| COC(=O)C1(OC)CC2OC1(C)n1c3ccccc3c3c4c(c5c6ccccc6n2c5c31)C(=O)N(C)C4 (stereo unspecified) | 1.04 and 1.12 |
| CC(C)(C)c1cc(C=C(C#N)C#N)cc(Br)c1O | 1.03 ± 0.044 |
| CN(N=O)c1cc(O)ccc1O [Dephostatin] | 1.07 |
| COC[C@H]1OC(=O)c2coc3c2[C@@]1(C)C1=C(C3=O)[C@@H]2CCC(=O)[C@@]2(C)C[C@H]1OC(C)=O [Wortmannin] | 1 ± 0.091 |
| CC(C)[C@@H]1NC(=O)[C@H](C)OC(=O)[C@@H](C(C)C)NC(=O)[C@@H](C(C)C)OC(=O)[C@H](C(C)C)NC(=O)[C@H](C)OC(=O)[C@@H](C(C)C)NC(=O)[C@@H](C(C)C)OC(=O)[C@H](C(C)C)NC(=O)[C@H](C)OC(=O)[C@@H](C(C)C)NC(=O)[C@@H](C(C)C)OC1=O [Valinomycin] | 1.24 |
| CNc1ccc2oc(C[C@H]3O[C@@]4(CC[C@H]3C)O[C@H]([C@H](C)C(=O)c3ccc[nH]3)[C@H](C)C[C@H]4C)nc2c1C(=O)O | 1.76 |
| NC(=S)N/N=C\c1coc2ccccc2c1=O.[Cl][Cu][Cl] [Akt Inhibitor XI] | 1 |
| CC(C)(c1ccc(OCC2CO2)cc1)c1ccc(OCC2CO2)cc1 (stereo unspecified) | 1 |
| CC(=O)N[C@H]1[C@@H](O[C@@H]2O[C@H](CC(O)[C@H]3O[C@@H](n4ccc(=O)[nH]c4=O)[C@H](O)[C@@H]3O)[C@H](O)[C@H](O)[C@H]2NC(=O)/C=C/CC(C)C)O[C@H](CO)[C@@H](N)[C@@H]1O (stereo partly specified) [Tunicamycin] | 0.913 |
| CC[C@@]1([C@@H]2O[C@@H]([C@H]3O[C@@](O)(CO)[C@H](C)C[C@@H]3C)C[C@@H]2C)CC[C@H]([C@]2(C)CC[C@]3(C[C@H](O)[C@@H](C)[C@@H]([C@@H](C)[C@@H](OC)[C@H](C)C(=O)O)O3)O2)O1 [Monensin] | 0.88 |
| N=C(N)NN [Aminoguanidine, HCl] | 1 |
| Cc1sc2c(c1C)C(c1ccc(Cl)cc1)=N[C@@H](CC(=O)OC(C)(C)C)c1nnc(C)n1-2 | 0.955 |

Some values from above:
For lysosomal-METRIQ red/green fluorescence ratio, `COC[C@H]1OC(=O)c2coc3c2[C@@]1(C)C1=C(C3=O)[C@@H]2CCC(=O)[C@@]2(C)C[C@H]1OC(C)=O` [Wortmannin] has the entry 1 ± 0.091
For lysosomal-METRIQ red/green fluorescence ratio, `CC[C@@]1([C@@H]2O[C@@H]([C@H]3O[C@@](O)(CO)[C@H](C)C[C@@H]3C)C[C@@H]2C)CC[C@H]([C@]2(C)CC[C@]3(C[C@H](O)[C@@H](C)[C@@H]([C@@H](C)[C@@H](OC)[C@H](C)C(=O)O)O3)O2)O1` [Monensin] has the entry 0.88

From the supplement of paper PMC6690932
